In this data set the test system is SLE subjects. The data set can be described thus: Phase Ia clinical study, single s.c. dose, tolerability and safety. Format: in vivo, human. Particulars: change of ≧3, ≦12 points; except one subject in the 0.5 mg group. Here is the method:
Thirty-six (36) subjects participated in the study. To be eligible for inclusion in the study, SLE patients must have fulfilled at least four criteria used for the diagnosis of lupus by the American College of Rheumatology. Patients must also have had stable, mild/moderate disease and score less than or equal to 10 on the SLE Disease Activity Index, SLEDAI. […] A standard battery of safety tests, including blood and urine collection for laboratory tests, was performed at screening, during the day of dosing, at 24 hours post-dose and at 2, 4 and 8 weeks following dosing. Prior to dosing, and on scheduled follow-up visits, blood samples were withdrawn for SLE-related immunological tests, anti-Compound 1 antibodies and PBL proliferation assay. […] The following safety parameters were assessed at Screening, during the hospitalization and at follow-up visits including Termination visit: vital signs (systolic blood pressure, diastolic blood pressure, pulse, oxygen saturation, temperature and weight), 12-lead ECG, change in physical examination and clinical routine laboratory safety tests. Adverse events were recorded at the Dosing Day and at each visit thereafter. […] Disease activity assessment using the SLE disease activity index score, year 2000 updated (SLEDAI 2K) was assessed at Screening, during the hospitalization and at follow-up visits including Termination visit.

Results on 1 substance are retold here after patent publication US20130023485A1, “PARENTERAL FORMULATIONS OF PEPTIDES FOR THE TREATMENT OF SYSTEMATIC LUPUS ERYTHEMATOSUS” (Teva Pharmaceutical Industries, Ltd., priority 2003, published 2013).

Turning to H-GYYWSWIRQPPGKGEEWIG-OH [Compound 1], the SLEDAI score entry is recorded as “No clinically significant effects”.
